Laboratory results: PubChem BioAssay AID504786 (Drosophila RNAi Screening Center, 2011)
Screen: 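Knock-downs reducing HIF reporter induction by the iron chelator DFO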 (primary screen). Cell system: Drosophila S2 cells with a stable HIF luciferase reporter. Reagents: long dsRNA against Drosophila genes, about 0.2 µg dsRNA per well of a 384-well plate. Timing: three days of knock-down, then 20 h of DFO before reading. Conditions: desferrioxamine (DFO) at 100 µM, an iron chelator that mimics hypoxia, for 20 h. Detection: 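Firefly luciferase driven by the mouse ldh-a hypoxia-response element, measured after 20 h of 100 µM DFO; z-scores per plate, higher means more signal lost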. Scale: z-score: higher = stronger loss of HIF reporter signal.
The screen tested about 21,000 reagents; shown is an unselected part of those with a known target gene and a result. 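Primary screen; positive scores mean lost reporter signal, so the sign may be inverted from the usual convention.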 Reagents against one gene are numbered here. Further read-outs or replicates are left out here.

no.	target	reagent no.	z-score, replicate 1	z-score, replicate 2
1	CG11674 (GeneID 32374)	1	0	-0.5
2	mdu (GeneID 32201)	1	0.2	0.5
3	Nepl17 (GeneID 43408)	1	-0.3	-0.9
4	CG33140 (GeneID 35642)	1	-0.3	-0.7
5	Cyp313a3 (GeneID 41488)	1	-0.4	-0.2
6	CG43740 (GeneID 31962)	1	-0.3	-0.6
7	CG12768 (GeneID 40513)	1	0.3	-0.2
8	CG11248 (GeneID 40411)	1	-0.3	-0.2
9	EMC1 (GeneID 40933)	1	-0.3	0.1
10	Pef (GeneID 36111)	1	-0.4	-0.5
11	CG13010 (GeneID 32643)	1	0	-0.5
12	CG7016 (GeneID 42968)	1	-0.4	1.2
13	CG16978 (GeneID 50446)	1	-0.2	-0.6
14	CG3071 (GeneID 31213)	1	-0.3	-0.5
15	alpha-Spec (GeneID 38231)	1	-0.3	-0.5
16	CG10038 (GeneID 41495)	1	-0.4	-0.3
17	rtv (GeneID 32056)	1	-0.1	-0.1
18	Syn (GeneID 41247)	1	-0.4	-0.9
19	FucTA (GeneID 39653)	1	-0.2	0
20	fat-spondin (GeneID 36919)	1	-0.2	0
21	CG42369 (GeneID 33894)	1	-0.2	0.1
22	Hap40 (GeneID 32507)	1	-0.2	-0.2
23	Naus (GeneID 37076)	1	-0.1	-0.6
24	Naus (GeneID 37076)	2	0.2	-0.5
25	CG31206 (GeneID 318627)	1	-0.6	-0.3
26	Or13a (GeneID 32562)	1	-0.1	-0.2
27	CAH9 (GeneID 43264)	1	-0.2	-0.3
28	plu (GeneID 44848)	1	-0.3	-0.3
29	CG10494 (GeneID 37453)	1	-0.2	-0.5
30	PpD3 (GeneID 49779)	1	-0.3	-0.9
31	CG14760 (GeneID 35802)	1	-0.1	0.4
32	CG33257 (GeneID 2768960)	1	-0.2	0.9
33	CG14294 (GeneID 42262)	1	-0.5	-0.1
34	nemy (GeneID 36395)	1	-0.1	-0.3
35	nemy (GeneID 36395)	2	-0.2	0.3
36	Osi20 (GeneID 40777)	1	-0.3	0.2
37	qkr58E-3 (GeneID 37559)	1	-0.3	-0.5
38	7B2 (GeneID 40644)	1	-0.3	-0.2
39	MYPT-75D (GeneID 40032)	1	-0.4	-0.6
40	CG13713 (GeneID 59233)	1	-0.4	-0.6
41	CROT (GeneID 43332)	1	-0.1	0.1
42	CROT (GeneID 43332)	2	-0.6	-0.2
43	CG43347 (GeneID 31991)	1	-0.5	-0.8
44	CG43347 (GeneID 31991)	2	-0.4	-0.8
45	cocoon (GeneID 39665)	1	-0.3	-0.2
46	Tes (GeneID 36965)	1	-0.3	-0.2
47	Ykt6 (GeneID 31706)	1	-0.5	0.4
48	CG14013 (GeneID 33786)	1	-0.3	0.4
49	CG4704 (GeneID 42706)	1	-0.1	0.3
50	Rfk (GeneID 40936)	1	-0.2	0.3
51	Acp95EF (GeneID 47852)	1	-0.2	-0.3
52	Vha55 (GeneID 41550)	1	-0.2	-0.1
53	ksh (GeneID 50363)	1	-0.4	-0.3
54	Gfat2 (GeneID 43373)	1	-0.4	-0.3
55	IKKepsilon (GeneID 35329)	1	-0.3	-0.6
56	Cbl (GeneID 38961)	1	-0.2	1.1
57	Cbl (GeneID 38961)	2	0.1	0.2
58	mgr (GeneID 41365)	1	-0.3	-0.4
59	PTP-ER (GeneID 37461)	1	-0.4	-0.6
60	CG34183 (GeneID 5740752)	1	0	0.2
61	CG16820 (GeneID 34730)	1	-0.3	-0.6
62	CG34034 (GeneID 3885584)	1	-0.3	-0.2
63	CG15861 (GeneID 37990)	1	-0.1	-0.4
64	CG9541 (GeneID 34220)	1	-0.3	-0.6
65	CG15107 (GeneID 59128)	1	0.3	0.6
66	CG9459 (GeneID 41213)	1	-0.3	-0.6
67	CG17264 (GeneID 33511)	1	-0.3	-0.2
68	Grip71 (GeneID 35130)	1	0.1	0.2
69	slou (GeneID 42547)	1	-0.3	0
70	Ugt303B2 (GeneID 42776)	1	-0.6	-1
71	CG15464 (retired record) (GeneID 31436)	1	-0.3	-0.5
72	CG7173 (GeneID 40392)	1	0.2	1.6
73	CG32196 (GeneID 317908)	1	0.7	0
74	toe (GeneID 39418)	1	-0.3	-0.1
75	toe (GeneID 39418)	2	-0.3	-0.3
76	CG5984 (GeneID 43281)	1	-0.2	-0.7
77	s-cup (GeneID 36371)	1	0.2	0.1
78	s-cup (GeneID 36371)	2	-0.2	-0.6
79	sala (GeneID 34570)	1	-0.2	-0.4
80	Jhbp1 (GeneID 40613)	1	-0.2	-0.5
81	CG31091 (GeneID 318591)	1	-0.3	-0.4
82	CG32988 (GeneID 318274)	1	-0.2	0
83	CG7582 (GeneID 43492)	1	-0.2	-0.2

Reformatted: 10 of the entries above
target	reagent no.	z-score, replicate 1	z-score, replicate 2
CG10494 (GeneID 37453)	1	-0.2	-0.5
PpD3 (GeneID 49779)	1	-0.3	-0.9
CG14760 (GeneID 35802)	1	-0.1	0.4
CG33257 (GeneID 2768960)	1	-0.2	0.9
CG14294 (GeneID 42262)	1	-0.5	-0.1
nemy (GeneID 36395)	1	-0.1	-0.3
nemy (GeneID 36395)	2	-0.2	0.3
Osi20 (GeneID 40777)	1	-0.3	0.2
qkr58E-3 (GeneID 37559)	1	-0.3	-0.5
7B2 (GeneID 40644)	1	-0.3	-0.2
